# Primary screen of a compound library

Data taken from ChEMBL document CHEMBL3988442, “University of Dundee, Small-Polar-MMV Screening Library” (2021).

Each number is a percent effect as filed. How 0% and 100% were set is not recorded. Most values in the screen are low, and negative values occur. The compounds are a random part of those screened.

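Whole-parasite assay of Trypanosoma brucei over 72 hours; the read-out is not stated. Concentration: 30 µM. The record gives no direction; compounds that gave an IC50 in retests scored well above the rest, so higher reads as stronger inhibition. Values scatter widely below zero; nearly all retest evidence comes from the higher of the two concentrations used. Size under these conditions: about 64,000 compounds, about 940 of them at 50% or above in at least one test.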

compound	effect
COc1cccc(CN2CCN(c3noc(C(C)C)n3)CC2)c1F	-16.83
Cc1cnc(C(=O)N2CCCn3c(nc(CN(C)C)cc3=O)C2)cn1.O=C(O)C(F)(F)F	-17.5
CCOCCc1nc(Cc2ccccc2)n[nH]1	-0.729
O=C1CC2(CCSC2)C(=O)N1Cc1ncc(-c2cccc(F)c2)o1 (stereo not drawn)	13.69
CCN1CC2(CCC1=O)CCN(Cc1cscn1)CC2	8.802
Cc1cc(-c2ccc(=O)n(CCNC(=O)C3CCCCC3)n2)c(C)o1	-2.176
[H][C@@]12CN(CC3CCOCC3)CCO[C@]1([H])CN(Cc1nc(C)cs1)C2	-44.64
CCN(CCn1cccn1)Cc1nc(-c2cccs2)oc1C	8.089
Cn1ncc(C(=O)N2CCN(CCS(C)(=O)=O)CC2)c1Cl	-23.91
CCCSc1ccccc1NC(=O)N1CCC(N2CCSCC2)CC1	-52.77
CCn1cc(NC(=O)NCC(c2ccsc2)N(C)C)cn1 (stereo not drawn)	8.632
CCC(C)(NCC(=O)NC(=O)NC)c1nc(C)cs1 (stereo not drawn)	-40.2
CN(C)CC1CN(Cc2coc(-c3ccccc3)n2)CCO1 (stereo not drawn)	1.121
Cn1cnnc1-c1ccnc(NCc2ccc3c(c2)OCCO3)c1	9.106
CN(C)C(CNC(=O)c1ccnc(-n2cncn2)c1)c1ccccc1 (stereo not drawn)	34.44
OC[C@H]1CN(Cc2c(Cl)cncc2Cl)C[C@H]1CN1CCCC1	-97.27
CCN1CCC(CC(=O)NC[C@H]2CCc3ccccc3O2)CC1	15.36
CNC(=O)Cn1nc(C(C)C)c2cnn(C(C)(C)C)c2c1=O	3.154
CC(C)OC(=O)CN1N=C(C(=O)N2CCCC2)S(=O)(=O)c2ccccc21	4.605
CCOCC1CN(C(=O)c2ccncn2)Cc2cnn(CC)c21.O=C(O)C(F)(F)F (stereo not drawn)	46.81
COc1ccc(N2CCN(C(=O)C3CN(C)C(=O)N3)CC2(C)C)cc1 (stereo not drawn)	-4.923
Cc1cc(Oc2ccccc2)nc(C2CCN(CCO)CC2)n1	-18.44
O=C(O)C(F)(F)F.[H][C@@]12CCN(c3ncc(F)cn3)C[C@]1([H])O[C@@H](C(=O)N1CCN(C)CC1)C2	-7.456
Cn1cnnc1CN1CCC2(CCC(=O)N(Cc3ccccn3)C2)CC1	-27.94
CC(C)c1cc(NC(=O)c2cccnc2)[nH]n1	11.06
CC(CC(=O)Nc1ccc(C(=O)N(C)C)c(Cl)c1)n1cccc1 (stereo not drawn)	-6.586
CC(NC(=O)Nc1ccc(F)c(F)c1)c1nc[nH]n1 (stereo not drawn)	-42.06
Cc1noc(-c2ccnc(Oc3cccc(CN4CCCC4)c3F)c2)n1	37.66
Cn1c2ccc(F)cc2c2ncn(CCN3CCOCC3)c(=O)c21	-49.01
CC(C)CC1SCC(=O)Nc2c1cnn2C1CCCC1 (stereo not drawn)	-31.65
Cc1ccc(C2CN(C(=O)NCc3nnc4ccccn34)CCO2)o1 (stereo not drawn)	-39.35
[H][C@]12CC[C@@]3(N=C(c4ccccc4)NC3=O)[C@@]1([H])CN(Cc1nccs1)C2	16.45
COCCn1cnnc1CCNc1cc(C)nc2ccnn12	-15.31
COc1ccc(C(=O)C2CCCN(Cc3cnn(C)c3C)C2)c(OC)c1 (stereo not drawn)	7.889
O=C(O)C(F)(F)F.O=C(O)C(F)(F)F.[H][C@]12CCN(Cc3ccccn3)C[C@@]1([H])OCCN(Cc1csc(C)n1)C2	21.75
[H][C@@]12CN(Cc3ccccc3F)C[C@]1([H])OCCN2c1ncccn1	-5.18
Cc1ccc(S(=O)(=O)NC[C@H]2OC[C@@H](NCc3ccncc3)[C@@H]2O)cc1	-9.139
FC(F)(F)c1cc(C2CCCN(Cc3ccncc3)C2)n[nH]1 (stereo not drawn)	-44.26
O=C(O)C(F)(F)F.O=C(O)C(F)(F)F.O=C(O)C(F)(F)F.[H][C@]12C[C@@H](CN3CCCC3)N(c3nccs3)[C@@]1([H])CCN(C)C2	13.85
Cc1ccc(NC2CCN(C(=O)COC3CCCC3)CC2)nn1	10.52
CCC[C@H]1CN(Cc2ccc(N(C)C)nc2)C[C@@H]1NS(=O)(=O)CC	-1.556
Cc1cc(C2CCCN(C(=O)COc3cc(C)on3)C2)n[nH]1 (stereo not drawn)	1.546
CN1CCOC(CNCc2coc(-c3ccccc3Cl)n2)C1 (stereo not drawn)	54.4
Cc1nn(C)c2c(=O)n(Cc3ccccc3)nnc12	-0.2156
CCN(CC)CC[C@H]1CN(C(=O)C2CCC2)CC[C@H]1CC(=O)O	-11.55
CN(C)C(=O)CN1CCC(c2cccc(Cc3ccc(F)cc3)n2)CC1	-2.775
Cc1cccc(C2(CNC(=O)CCN3C(=O)CCC3=O)CCCC2)c1	36.59
O=C(Cc1ccon1)NC1CC2(CCC2)Oc2ccccc21 (stereo not drawn)	-22.23
Cc1cccc(C2(C(=O)NCC(C)CN3CCCC3=O)CC2)c1 (stereo not drawn)	5.152
Cc1cccc(CN2C(=O)CCC23CCN(Cc2nccn2C)CC3)n1	-8.937
COc1ccccc1OCc1cc(C(=O)N2CC(O)C2)n[nH]1	12.65
CCC(=O)N1CCC(c2nc(N3CCCCC3)ncc2S(C)(=O)=O)CC1	16.9
c1cnc(N2CCN(CCn3ccnc3-c3c[nH]cn3)CC2)nc1	-8.132
Cc1nc(CCC(N)=O)cc(C2CCCN2S(C)(=O)=O)n1 (stereo not drawn)	6.337
CN(C)C(=O)CN(C)C(=O)c1cccn1CCc1ccccc1	-23.67
O=C(O)C(F)(F)F.O=S(=O)(NCC1COCc2c(-c3ccncc3)nnn2C1)C1CC1 (stereo not drawn)	17.19
COCCc1noc(CN2CCCC(Cn3cncn3)C2)n1 (stereo not drawn)	12.37
COCCCSc1ccc(NCc2scnc2C)cc1	5.199
O=C(O)C(F)(F)F.O=C(O)C(F)(F)F.O=C(O)C(F)(F)F.c1ccc(CN2CCOC3(CCN(c4ncccn4)CC3)C2)nc1	-16.7
CNC(=O)CCNC(=O)c1cc(Br)c2c(c1)OCCO2	-12.13
Cc1nc2c(C#N)cnn2c(C)c1CCC(=O)N(C)C1CC1	-40.39
Cn1cc(-c2nc(C(=O)N3CCCC3Cn3cccn3)cs2)cn1 (stereo not drawn)	-18.82
Cn1nc(Cn2ccnc2)c2c1CN(C(=O)c1ccc[nH]1)C2	-16.05
CC(CNC(=O)NCCCc1cc(N)n(-c2ccccc2)n1)N(C)C (stereo not drawn)	-13.66
Cc1cc(NCc2cccc(C#N)c2)ccc1C(=O)N(C)C	-0.1044
O=C1NCC2(CCCN(Cc3ccc(Cl)s3)C2)Oc2ccccc21 (stereo not drawn)	12.52
CCC(=O)N1CCC(c2nc3ccc(NC(C)C)cn3n2)CC1	-14.82
CCOc1ccc(NC(=O)N2CCC(n3cncn3)CC2)cc1Cl	2.301
CC(=O)N1CCC(C(=O)Nc2nnc(C(F)(F)F)[nH]2)CC1	-30.79
CCOCC(=O)N1CCC(c2nccn2CC2CC2)CC1	-16.81
Cc1cccc(C2(C(=O)NCC3CCN(CC(F)(F)F)C3)CCC2)c1 (stereo not drawn)	-1.572
CCOC(=O)Cn1c(=O)nc(N)c2c(-c3ccc(OC)cc3)csc21	-36.18
O=C(c1c[nH]c(=O)[nH]c1=O)N1CCCC(c2nccn2CC2CCC2)C1 (stereo not drawn)	-5.402
CN(Cc1nc(C(C)(C)C)no1)C1CCS(=O)(=O)C1 (stereo not drawn)	-53.56
CC(C)c1noc(C2CCN(S(=O)(=O)c3cccs3)CC2)n1	-35.19
CN1CCCC(C(=O)N2CCC(Oc3ccc(C#N)cn3)CC2)C1 (stereo not drawn)	4.961
[H][C@@]12C[C@@H](OC)C[C@]1([H])CN(C(=O)Cc1ccc(C)s1)C2	15.04
[H][C@@]12CNC[C@]1([H])[C@H]2CN1CCn2nc(CNC(=O)N(C)C)cc2C1	-2.246
[H][C@@]12CS(=O)(=O)C[C@]1([H])N(C(=O)c1cnccn1)CCN2CCC	7.053
O=C(CCc1nc2cccnc2[nH]1)Nc1ccc2c(c1)NC(=O)CO2	-35.54

Repeated from the top, 9 entries:

COc1cccc(CN2CCN(c3noc(C(C)C)n3)CC2)c1F gave -16.83%.
Cc1cnc(C(=O)N2CCCn3c(nc(CN(C)C)cc3=O)C2)cn1.O=C(O)C(F)(F)F gave -17.5%.
CCOCCc1nc(Cc2ccccc2)n[nH]1 gave -0.729%.
O=C1CC2(CCSC2)C(=O)N1Cc1ncc(-c2cccc(F)c2)o1 (stereo not drawn) gave 13.69%.
CCN1CC2(CCC1=O)CCN(Cc1cscn1)CC2 gave 8.802%.
Cc1cc(-c2ccc(=O)n(CCNC(=O)C3CCCCC3)n2)c(C)o1 gave -2.176%.
[H][C@@]12CN(CC3CCOCC3)CCO[C@]1([H])CN(Cc1nc(C)cs1)C2 gave -44.64%.
CCN(CCn1cccn1)Cc1nc(-c2cccs2)oc1C gave 8.089%.
Cn1ncc(C(=O)N2CCN(CCS(C)(=O)=O)CC2)c1Cl gave -23.91%.